# Screening data, single-dose tests

The chains behind the UniProt entries cited, without tags or fusion partners.
UniProt I6X8D2, whole entry: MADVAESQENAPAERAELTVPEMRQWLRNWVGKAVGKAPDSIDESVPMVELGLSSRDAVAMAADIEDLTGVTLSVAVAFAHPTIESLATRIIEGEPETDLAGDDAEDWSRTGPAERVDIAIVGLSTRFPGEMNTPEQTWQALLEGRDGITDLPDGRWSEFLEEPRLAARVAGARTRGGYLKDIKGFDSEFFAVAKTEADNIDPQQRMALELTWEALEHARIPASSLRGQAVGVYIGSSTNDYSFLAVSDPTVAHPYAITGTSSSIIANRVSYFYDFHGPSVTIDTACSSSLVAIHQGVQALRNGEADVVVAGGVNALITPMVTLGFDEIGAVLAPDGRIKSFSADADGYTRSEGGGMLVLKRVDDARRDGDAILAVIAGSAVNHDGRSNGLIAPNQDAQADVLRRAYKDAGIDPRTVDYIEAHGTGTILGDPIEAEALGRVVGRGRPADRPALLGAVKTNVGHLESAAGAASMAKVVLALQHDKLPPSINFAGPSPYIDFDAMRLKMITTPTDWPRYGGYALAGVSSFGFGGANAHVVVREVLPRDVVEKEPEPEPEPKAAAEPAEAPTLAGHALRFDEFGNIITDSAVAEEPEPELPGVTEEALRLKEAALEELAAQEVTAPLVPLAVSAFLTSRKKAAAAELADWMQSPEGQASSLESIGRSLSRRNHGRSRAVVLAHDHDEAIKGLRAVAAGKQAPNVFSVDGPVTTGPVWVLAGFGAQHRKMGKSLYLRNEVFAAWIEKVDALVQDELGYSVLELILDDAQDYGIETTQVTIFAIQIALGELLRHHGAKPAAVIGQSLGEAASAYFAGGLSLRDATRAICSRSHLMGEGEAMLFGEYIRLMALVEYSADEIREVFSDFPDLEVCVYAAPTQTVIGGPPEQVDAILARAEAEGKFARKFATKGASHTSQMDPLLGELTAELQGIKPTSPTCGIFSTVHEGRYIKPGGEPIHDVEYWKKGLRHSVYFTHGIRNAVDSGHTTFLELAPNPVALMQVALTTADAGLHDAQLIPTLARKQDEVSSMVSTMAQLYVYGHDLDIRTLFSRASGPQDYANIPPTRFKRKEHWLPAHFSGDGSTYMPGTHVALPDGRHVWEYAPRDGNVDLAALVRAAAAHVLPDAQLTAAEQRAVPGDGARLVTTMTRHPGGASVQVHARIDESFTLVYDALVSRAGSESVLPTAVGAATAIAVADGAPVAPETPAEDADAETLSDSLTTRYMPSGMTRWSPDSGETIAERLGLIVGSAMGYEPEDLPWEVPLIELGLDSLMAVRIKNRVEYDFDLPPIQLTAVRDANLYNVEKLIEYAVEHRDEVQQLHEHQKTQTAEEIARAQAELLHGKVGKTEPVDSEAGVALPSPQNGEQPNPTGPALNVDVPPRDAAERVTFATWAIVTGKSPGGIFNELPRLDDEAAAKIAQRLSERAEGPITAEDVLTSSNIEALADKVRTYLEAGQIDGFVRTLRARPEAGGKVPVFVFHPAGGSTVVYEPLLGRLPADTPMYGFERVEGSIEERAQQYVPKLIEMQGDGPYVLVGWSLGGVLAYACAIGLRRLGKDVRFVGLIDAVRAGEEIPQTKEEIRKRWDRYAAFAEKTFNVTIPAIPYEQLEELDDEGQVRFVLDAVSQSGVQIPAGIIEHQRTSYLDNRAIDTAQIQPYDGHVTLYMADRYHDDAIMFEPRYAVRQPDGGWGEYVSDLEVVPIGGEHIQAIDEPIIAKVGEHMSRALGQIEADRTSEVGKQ

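Polyketide synthase Pks13, Mycobacterium tuberculosis (UniProt I6X8D2). Enzyme assay of the thioesterase domain of polyketide synthase 13; the read-out is not stated. Concentration: 30 µM. The record gives no direction; the compounds picked for IC50 retests had high values, so higher reads as stronger inhibition. About 67,000 compounds were tested under these conditions; 0.46% (about 300) showed 50% or more at least once.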

Values are the deposited “Percent Effect”, in %.
The record does not define 0% and 100%; most values in the screen are far below 50% and negative numbers occur (in some assays of this library far below -100).
This is an unselected part of the compounds tested.

O=C(Nc1cnc2n1CCCC2)C1CCNCC1 read 0.351%.
COCC(O)CN(C)C(=O)NCc1ccc(-c2ccn[nH]2)cc1 (centres unmarked) read -4.039%.
O=C1CC2(CCN(C(=O)c3cccc(Cl)c3)CC2)CN1 read -11.68%.
CCOCCn1nc(C)cc1C(=O)N1CC(C)(C)[C@@](C)(O)C1 read 13.19%.
Cc1cc(C(=O)N2CCC(C)CC2)ccc1NS(C)(=O)=O read 18.42%.
COC(=O)CC(c1ccc(O)c(Cl)c1)c1oc(C)cc(=O)c1O (centres unmarked) read -13.03%.
Cc1cn2c(=O)c(-c3ccnc(N[C@@H]4CCOC4)n3)cnc2s1 read 15.9%.
O=C(c1cocn1)N1CCC2(CC1)CC(OCC1CC1)CO2 (centres unmarked) read -23.23%.
CCCc1nnc(NC2CCN(C3CCSCC3)CC2)o1 read -34.59%.
O=C(c1ccco1)N1CC[C@H]2[C@H]1CC(=O)N2c1cccnc1 read -40.84%.
CC(c1ccccc1Cl)N1CCN(C(=O)c2ccc(=O)[nH]c2)CC1 (centres unmarked) read 1.801%.
CCc1ccccc1Nc1noc2c1CN(C(=O)C1CCCO1)CC2 (centres unmarked) read -6.886%.
Cc1nc(Nc2nnc(C)s2)cc(C2CCCN2C2CCCC2)n1 (centres unmarked) read -5.878%.
CCOC(=O)N(C)C1CCN(Cc2ccsc2)CC1 read -5.105%.
COC(C(=O)N1CCN(Cc2noc(C)n2)CC1)c1ccccc1 (centres unmarked) read -28.76%.
CC1(C)CNC(=O)c2nc(CCN3CCCCC3CO)[nH]c2C1 (centres unmarked) read 6.509%.
Cc1cccc(Nc2c(C#N)c(=O)n(C)c(=O)n2C)c1 read -49.4%.
CCOC(=O)c1ccc(CNC(=O)c2ccon2)o1 read 0.5179%.
CC(C)CC(=O)N1CC[C@@H]2[C@H](CC1)N(S(C)(=O)=O)CCS2(=O)=O read -4.338%.
Cc1cccc(C)c1CN1C(=O)CC2(CCSC2)C1=O (centres unmarked) read -3.728%.
CN1CCC(NCC(O)c2cccc(OCc3ccccc3)c2)CC1 (centres unmarked) read -2.222%.
CS(=O)(=O)c1nnc(NC(=O)CCc2cc(F)ccc2F)[nH]1 read -17.94%.
COc1ncc(CN2CCOC(C)(C(=O)N3CCOCC3)C2)cn1 (centres unmarked) read 10.96%.
CNC(=O)c1sc2ccccc2c1C1CCN(c2nc(C)cc(C)n2)C1 (centres unmarked) read -3.209%.
O=C(Cc1cccc(O)c1)N1CCCC(O)(CN2CCCC2)CC1 (centres unmarked) read -3.891%.
Cc1cnc(NC(=O)N2CCOCC2)s1 read -21.96%.
Cc1ccccc1CN1CCC2(COCc3cnc(N(C)C)nc32)C1 (centres unmarked) read -17.4%.
NC(=O)CN1CCCN(C(=O)CCOc2ccccc2Cl)CC1 read -3.897%.
CCN1C[C@H]2C3(CCN(S(=O)(=O)CC)CC3)CC[C@@]2(C(=O)N(C)C)C1 read -27.34%.
CN(C)Cc1nn(C)c2c1CN(C(=O)c1ccc[nH]1)C2 read -26.31%.
CC(C)C(=O)NC1COC2(CCN(Cc3cccnc3)CC2)C1 (centres unmarked) read -23.66%.
COc1cc(NC(=O)NC(C2CC2)C2CC2)ccc1N1CCOC1=O read -38.02%.
O=C(c1n[nH]c(=O)c2ccccc12)N1CCC(O)(CN2CCOCC2)C1 (centres unmarked) read 7.015%.
CN1C(=O)CC2(CCN(S(=O)(=O)c3cccs3)CC2)c2ccccc21 read -52.19%.

For reference, 3 entries once more:

| structure | Percent Effect |
|---|---|
| `O=C1CC2(CCN(C(=O)c3cccc(Cl)c3)CC2)CN1` | -11.68 |
| `Cc1cccc(Nc2c(C#N)c(=O)n(C)c(=O)n2C)c1` | -49.4 |
| `Cc1nc(Nc2nnc(C)s2)cc(C2CCCN2C2CCCC2)n1` (centres unmarked) | -5.878 |

Measurements from “University of Dundee, Small-Polar-MMV Screening Library” (2021), ChEMBL document CHEMBL3988442.